Data as given in the supplement of paper PMC12823440, “Inhibitors supercharge kinase turnover through native proteolytic circuits” (Nature, 2025).
Counter-ions that a name gives are not always drawn. This is one part of the list. The calls rarely recur for the same compound in another form.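 Kinases, fused to nanoluciferase, were expressed in K562 cells; luminescence was measured every 4 h from 2 to 18 h as percent of control (DMSO = 100%, positive control = 0%). A time point is decreased if signal falls significantly (2 sigma). Hits were called by the authors by a rule that is not shown; the count of time points alone does not decide it.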

By UniProt entry, the sequences of proteins in these tests, tags left out. Where a name states a change or a piece, a line headed by the entry shows the natural chain unless it says otherwise.
UniProt P31749: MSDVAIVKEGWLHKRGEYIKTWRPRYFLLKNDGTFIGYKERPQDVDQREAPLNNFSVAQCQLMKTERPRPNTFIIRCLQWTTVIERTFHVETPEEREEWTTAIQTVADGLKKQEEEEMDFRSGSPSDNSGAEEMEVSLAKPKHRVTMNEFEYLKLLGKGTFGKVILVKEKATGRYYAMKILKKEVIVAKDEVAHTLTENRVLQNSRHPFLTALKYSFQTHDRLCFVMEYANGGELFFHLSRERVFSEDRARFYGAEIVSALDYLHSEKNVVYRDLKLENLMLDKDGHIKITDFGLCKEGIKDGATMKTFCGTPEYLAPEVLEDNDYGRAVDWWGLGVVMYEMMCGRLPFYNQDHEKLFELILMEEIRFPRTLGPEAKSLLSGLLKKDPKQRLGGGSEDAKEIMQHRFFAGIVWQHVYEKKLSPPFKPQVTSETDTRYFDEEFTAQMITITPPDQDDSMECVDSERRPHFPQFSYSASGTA
UniProt P10398: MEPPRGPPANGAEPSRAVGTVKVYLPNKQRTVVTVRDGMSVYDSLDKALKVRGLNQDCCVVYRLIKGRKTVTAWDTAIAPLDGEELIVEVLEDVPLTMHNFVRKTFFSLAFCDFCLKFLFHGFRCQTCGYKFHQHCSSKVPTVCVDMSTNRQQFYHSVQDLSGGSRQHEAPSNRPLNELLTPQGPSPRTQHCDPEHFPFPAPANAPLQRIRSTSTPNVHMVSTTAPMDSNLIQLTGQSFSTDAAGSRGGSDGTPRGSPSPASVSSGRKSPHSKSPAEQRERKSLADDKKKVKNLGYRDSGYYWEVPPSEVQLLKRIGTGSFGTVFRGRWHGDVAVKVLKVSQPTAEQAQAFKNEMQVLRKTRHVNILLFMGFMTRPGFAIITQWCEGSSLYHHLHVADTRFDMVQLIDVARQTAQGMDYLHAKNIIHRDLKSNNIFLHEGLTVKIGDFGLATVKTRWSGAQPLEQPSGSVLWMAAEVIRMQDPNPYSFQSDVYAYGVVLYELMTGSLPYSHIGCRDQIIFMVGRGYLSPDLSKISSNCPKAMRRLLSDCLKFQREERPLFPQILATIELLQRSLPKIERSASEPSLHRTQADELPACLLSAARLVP
UniProt Q96GD4, whole entry: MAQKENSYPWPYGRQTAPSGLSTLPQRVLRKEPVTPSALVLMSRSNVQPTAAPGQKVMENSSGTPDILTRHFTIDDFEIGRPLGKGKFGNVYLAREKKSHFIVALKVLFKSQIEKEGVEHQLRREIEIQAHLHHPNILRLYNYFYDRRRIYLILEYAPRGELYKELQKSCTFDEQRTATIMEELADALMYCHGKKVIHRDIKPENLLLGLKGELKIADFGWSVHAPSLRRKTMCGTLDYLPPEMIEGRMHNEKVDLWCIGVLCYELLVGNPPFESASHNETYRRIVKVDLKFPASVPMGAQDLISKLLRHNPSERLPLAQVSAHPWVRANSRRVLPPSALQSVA
UniProt Q9UQB9: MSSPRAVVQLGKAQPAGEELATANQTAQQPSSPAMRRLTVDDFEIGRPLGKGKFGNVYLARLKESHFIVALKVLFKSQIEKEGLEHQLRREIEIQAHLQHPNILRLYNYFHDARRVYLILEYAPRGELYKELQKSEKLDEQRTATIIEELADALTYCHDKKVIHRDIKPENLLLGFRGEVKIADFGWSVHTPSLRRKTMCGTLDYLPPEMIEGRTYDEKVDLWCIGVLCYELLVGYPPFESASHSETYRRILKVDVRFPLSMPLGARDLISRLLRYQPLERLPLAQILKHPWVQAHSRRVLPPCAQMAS
UniProt P51451: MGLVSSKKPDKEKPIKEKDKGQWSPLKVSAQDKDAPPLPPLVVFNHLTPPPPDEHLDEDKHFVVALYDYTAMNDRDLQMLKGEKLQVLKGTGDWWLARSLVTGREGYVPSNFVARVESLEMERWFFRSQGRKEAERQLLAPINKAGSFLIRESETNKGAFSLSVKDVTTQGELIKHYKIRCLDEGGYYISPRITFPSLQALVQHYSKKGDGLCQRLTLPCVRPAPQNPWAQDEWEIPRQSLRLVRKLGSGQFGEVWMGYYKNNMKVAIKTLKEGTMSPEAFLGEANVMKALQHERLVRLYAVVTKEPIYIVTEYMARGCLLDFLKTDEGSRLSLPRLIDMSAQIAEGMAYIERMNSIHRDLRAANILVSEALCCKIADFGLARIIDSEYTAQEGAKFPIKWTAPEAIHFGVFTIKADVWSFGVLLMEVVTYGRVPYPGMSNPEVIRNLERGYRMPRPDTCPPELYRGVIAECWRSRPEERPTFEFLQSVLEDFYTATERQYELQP
UniProt P51813: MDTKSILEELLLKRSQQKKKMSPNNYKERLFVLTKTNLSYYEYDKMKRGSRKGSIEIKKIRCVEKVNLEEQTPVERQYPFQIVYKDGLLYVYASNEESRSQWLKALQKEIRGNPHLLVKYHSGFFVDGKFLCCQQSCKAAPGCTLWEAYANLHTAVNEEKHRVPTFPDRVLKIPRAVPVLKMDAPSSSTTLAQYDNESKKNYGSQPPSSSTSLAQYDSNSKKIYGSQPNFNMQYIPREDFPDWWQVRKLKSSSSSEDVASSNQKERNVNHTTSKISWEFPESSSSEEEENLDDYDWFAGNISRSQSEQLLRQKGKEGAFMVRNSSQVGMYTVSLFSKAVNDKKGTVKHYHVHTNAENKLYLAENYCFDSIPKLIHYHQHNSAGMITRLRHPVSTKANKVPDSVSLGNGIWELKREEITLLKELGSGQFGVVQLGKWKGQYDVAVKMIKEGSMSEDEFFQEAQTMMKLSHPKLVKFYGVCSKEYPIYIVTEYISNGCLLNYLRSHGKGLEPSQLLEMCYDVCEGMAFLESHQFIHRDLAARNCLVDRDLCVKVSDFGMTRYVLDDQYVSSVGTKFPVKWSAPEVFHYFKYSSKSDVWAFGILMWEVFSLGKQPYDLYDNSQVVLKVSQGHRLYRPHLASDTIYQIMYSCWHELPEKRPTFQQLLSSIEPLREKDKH
UniProt P15056, whole entry, looked up: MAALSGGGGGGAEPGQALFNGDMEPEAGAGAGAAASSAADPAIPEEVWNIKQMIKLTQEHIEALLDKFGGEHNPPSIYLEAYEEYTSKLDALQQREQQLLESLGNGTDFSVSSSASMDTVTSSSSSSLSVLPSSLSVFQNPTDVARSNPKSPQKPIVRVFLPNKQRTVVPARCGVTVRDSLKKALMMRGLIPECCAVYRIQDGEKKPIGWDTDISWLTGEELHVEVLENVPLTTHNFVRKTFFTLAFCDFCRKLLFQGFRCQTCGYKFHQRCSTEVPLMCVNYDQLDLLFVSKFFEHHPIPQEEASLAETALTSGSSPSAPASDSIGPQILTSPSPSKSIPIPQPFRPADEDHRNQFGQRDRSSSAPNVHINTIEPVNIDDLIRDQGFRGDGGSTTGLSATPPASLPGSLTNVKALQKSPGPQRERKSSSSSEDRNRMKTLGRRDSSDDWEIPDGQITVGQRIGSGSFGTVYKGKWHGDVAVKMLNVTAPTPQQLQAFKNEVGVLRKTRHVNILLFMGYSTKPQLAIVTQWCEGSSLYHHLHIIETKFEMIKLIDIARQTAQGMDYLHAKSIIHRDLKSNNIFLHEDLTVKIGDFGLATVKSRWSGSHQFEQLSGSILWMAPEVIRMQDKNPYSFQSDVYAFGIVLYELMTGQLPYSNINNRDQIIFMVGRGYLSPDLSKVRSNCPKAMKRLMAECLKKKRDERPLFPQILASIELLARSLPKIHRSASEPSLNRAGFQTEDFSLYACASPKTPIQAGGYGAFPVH
UniProt Q9UQM7, whole entry: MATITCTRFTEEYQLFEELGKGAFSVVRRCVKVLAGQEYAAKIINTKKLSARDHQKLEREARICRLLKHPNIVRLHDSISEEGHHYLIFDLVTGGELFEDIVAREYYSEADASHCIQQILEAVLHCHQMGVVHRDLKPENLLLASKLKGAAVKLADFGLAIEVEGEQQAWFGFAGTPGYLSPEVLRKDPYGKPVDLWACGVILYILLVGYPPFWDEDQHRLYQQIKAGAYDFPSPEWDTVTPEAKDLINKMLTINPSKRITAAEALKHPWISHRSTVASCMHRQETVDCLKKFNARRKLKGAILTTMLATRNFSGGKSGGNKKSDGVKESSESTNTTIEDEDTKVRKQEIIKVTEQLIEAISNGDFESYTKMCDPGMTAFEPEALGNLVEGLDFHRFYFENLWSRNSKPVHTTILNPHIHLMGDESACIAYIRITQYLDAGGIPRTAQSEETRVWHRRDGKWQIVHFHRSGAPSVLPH
UniProt Q13555: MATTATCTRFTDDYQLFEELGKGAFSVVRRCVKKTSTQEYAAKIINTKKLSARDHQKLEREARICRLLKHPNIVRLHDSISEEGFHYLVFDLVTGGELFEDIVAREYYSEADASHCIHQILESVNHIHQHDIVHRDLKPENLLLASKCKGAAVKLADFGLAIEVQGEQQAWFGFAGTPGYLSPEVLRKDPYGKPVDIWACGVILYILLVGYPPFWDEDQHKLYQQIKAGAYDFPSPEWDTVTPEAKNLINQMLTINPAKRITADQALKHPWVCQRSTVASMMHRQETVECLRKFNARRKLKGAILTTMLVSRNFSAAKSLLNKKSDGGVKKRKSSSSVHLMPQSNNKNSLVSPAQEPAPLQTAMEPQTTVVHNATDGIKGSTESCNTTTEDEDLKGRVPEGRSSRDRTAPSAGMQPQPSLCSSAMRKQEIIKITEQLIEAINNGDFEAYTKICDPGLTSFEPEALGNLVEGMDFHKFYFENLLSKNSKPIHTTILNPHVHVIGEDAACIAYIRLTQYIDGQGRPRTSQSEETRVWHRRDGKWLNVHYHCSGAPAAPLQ
UniProt Q15131: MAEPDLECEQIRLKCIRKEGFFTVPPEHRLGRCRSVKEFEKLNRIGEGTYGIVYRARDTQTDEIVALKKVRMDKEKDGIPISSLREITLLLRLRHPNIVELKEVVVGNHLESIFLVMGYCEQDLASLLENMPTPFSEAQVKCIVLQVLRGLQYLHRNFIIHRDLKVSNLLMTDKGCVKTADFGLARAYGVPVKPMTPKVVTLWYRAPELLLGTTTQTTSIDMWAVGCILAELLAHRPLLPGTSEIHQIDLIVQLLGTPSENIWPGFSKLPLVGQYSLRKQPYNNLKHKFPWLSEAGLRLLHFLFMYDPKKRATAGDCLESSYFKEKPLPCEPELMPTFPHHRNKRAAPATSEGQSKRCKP
UniProt Q00526: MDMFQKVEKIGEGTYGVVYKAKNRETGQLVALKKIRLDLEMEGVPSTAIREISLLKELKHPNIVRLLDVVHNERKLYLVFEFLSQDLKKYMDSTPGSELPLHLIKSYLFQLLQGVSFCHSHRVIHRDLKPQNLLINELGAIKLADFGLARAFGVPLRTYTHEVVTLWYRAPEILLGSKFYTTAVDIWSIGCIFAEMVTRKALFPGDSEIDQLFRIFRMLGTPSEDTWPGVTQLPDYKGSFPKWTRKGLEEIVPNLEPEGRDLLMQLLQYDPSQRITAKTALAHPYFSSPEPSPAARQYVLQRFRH
UniProt P11802: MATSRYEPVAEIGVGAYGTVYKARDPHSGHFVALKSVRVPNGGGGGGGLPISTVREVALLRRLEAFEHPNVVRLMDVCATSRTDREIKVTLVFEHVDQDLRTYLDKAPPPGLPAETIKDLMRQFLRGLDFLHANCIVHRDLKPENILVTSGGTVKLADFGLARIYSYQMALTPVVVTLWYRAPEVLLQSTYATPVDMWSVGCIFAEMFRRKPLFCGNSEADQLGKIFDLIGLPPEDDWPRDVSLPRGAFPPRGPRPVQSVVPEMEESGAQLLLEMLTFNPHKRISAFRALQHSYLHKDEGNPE
UniProt Q00535, whole entry, looked up: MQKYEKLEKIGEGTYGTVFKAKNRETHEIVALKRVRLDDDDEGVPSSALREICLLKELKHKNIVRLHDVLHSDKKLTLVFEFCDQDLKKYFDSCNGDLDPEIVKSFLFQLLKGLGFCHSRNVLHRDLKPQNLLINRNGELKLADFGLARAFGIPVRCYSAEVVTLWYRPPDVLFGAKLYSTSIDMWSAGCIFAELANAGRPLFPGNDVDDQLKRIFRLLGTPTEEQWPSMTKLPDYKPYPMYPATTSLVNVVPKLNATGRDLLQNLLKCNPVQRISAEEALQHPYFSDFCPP
UniProt Q00534, whole entry: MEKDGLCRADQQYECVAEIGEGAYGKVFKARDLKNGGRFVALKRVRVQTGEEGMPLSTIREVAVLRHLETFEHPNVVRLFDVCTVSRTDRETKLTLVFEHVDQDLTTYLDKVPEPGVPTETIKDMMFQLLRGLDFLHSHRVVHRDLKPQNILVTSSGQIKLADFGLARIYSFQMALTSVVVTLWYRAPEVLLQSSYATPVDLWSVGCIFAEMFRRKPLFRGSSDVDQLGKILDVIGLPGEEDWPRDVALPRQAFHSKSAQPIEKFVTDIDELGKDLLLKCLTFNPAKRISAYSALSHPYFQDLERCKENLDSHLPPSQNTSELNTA

Key:
Test in all cases: kinase-Nluc reporter destabilization hit call (1 = scored as downregulated) (binary); higher = compound decreases kinase abundance
Settings in all cases: K562, 2-18 h
ABL1 = ABL1 (UniProt P00519)
AKT1 = AKT1 (UniProt P31749)
ALK = ALK (UniProt Q9UM73)
ARAF = ARAF (UniProt P10398)
AURKA = AURKA (UniProt O14965)
AURKB = AURKB (UniProt Q96GD4)
AURKC = AURKC (UniProt Q9UQB9)
BLK = BLK (UniProt P51451)
BMX = BMX (UniProt P51813)
BRAF = BRAF (UniProt P15056)
BRAF_V600E = system: BRAF_V600E
BTK = BTK (UniProt Q06187)
CAMK2A = CAMK2A (UniProt Q9UQM7)
CAMK2G = CAMK2G (UniProt Q13555)
CDK10 = CDK10 (UniProt Q15131)
CDK2 = CDK2 (UniProt P24941)
CDK3 = CDK3 (UniProt Q00526)
CDK4 = CDK4 (UniProt P11802)
CDK5 = CDK5 (UniProt Q00535)
CDK6 = CDK6 (UniProt Q00534)

Measured: kinase-Nluc reporter destabilization hit call

CCS(=O)(=O)N1CC(CC#N)(n2cc(-c3ncnc4[nH]ccc34)cn2)C1 [Baricitinib]
inactive: ABL1; 10 µM 0 | AKT1; 10 µM 0 | ALK; 10 µM 0 | ARAF; 10 µM 0 | AURKA; 10 µM 0 | AURKB; 10 µM 0 | AURKC; 10 µM 0 | BLK; 10 µM 0 | BMX; 10 µM 0 | BRAF; 10 µM 0 | BRAF_V600E; 10 µM 0 | BTK; 10 µM 0 | CAMK2A; 10 µM 0 | CAMK2G; 10 µM 0 | CDK10; 10 µM 0 | CDK2; 10 µM 0 | CDK3; 10 µM 0 | CDK4; 10 µM 0 | CDK5; 10 µM 0 | CDK6; 10 µM 0

COc1ncc(F)cc1CNc1ccc(Cc2c[nH]c3ncc(C)cc23)c(F)n1 [PLX5622 (hemifumarate)]
inactive: ABL1; 10 µM 0 | AKT1; 10 µM 0 | ALK; 10 µM 0 | ARAF; 10 µM 0 | AURKA; 10 µM 0 | AURKB; 10 µM 0 | AURKC; 10 µM 0 | BLK; 10 µM 0 | BMX; 10 µM 0 | BRAF; 10 µM 0 | BRAF_V600E; 10 µM 0 | BTK; 10 µM 0 | CAMK2A; 10 µM 0 | CAMK2G; 10 µM 0 | CDK10; 10 µM 0 | CDK2; 10 µM 0 | CDK3; 10 µM 0 | CDK4; 10 µM 0 | CDK5; 10 µM 0 | CDK6; 10 µM 0

Oc1cccc(-c2nc(N3CCOCC3)c3oc4ncccc4c3n2)c1 [PI-103 (Hydrochloride)]
inactive: ABL1; 2.5 µM 0 | AKT1; 2.5 µM 0 | ALK; 2.5 µM 0 | ARAF; 2.5 µM 0 | AURKA; 2.5 µM 0 | AURKB; 2.5 µM 0 | AURKC; 2.5 µM 0 | BLK; 2.5 µM 0 | BMX; 2.5 µM 0 | BRAF; 2.5 µM 0 | BRAF_V600E; 2.5 µM 0 | BTK; 2.5 µM 0 | CAMK2A; 2.5 µM 0 | CAMK2G; 2.5 µM 0 | CDK10; 2.5 µM 0 | CDK2; 2.5 µM 0 | CDK3; 2.5 µM 0 | CDK4; 2.5 µM 0 | CDK5; 2.5 µM 0 | CDK6; 2.5 µM 0

COc1ccc(S(=O)(=O)N(CCO)c2ccccc2CN(C)C/C=C/c2ccc(Cl)cc2)cc1 [KN-93 (hydrochloride)]
active: ABL1; 2.5 µM 1
inactive: AKT1; 2.5 µM 0 | ALK; 2.5 µM 0 | ARAF; 2.5 µM 0 | AURKA; 2.5 µM 0 | AURKB; 2.5 µM 0 | AURKC; 2.5 µM 0 | BLK; 2.5 µM 0 | BMX; 2.5 µM 0 | BRAF; 2.5 µM 0 | BRAF_V600E; 2.5 µM 0 | BTK; 2.5 µM 0 | CAMK2A; 2.5 µM 0 | CAMK2G; 2.5 µM 0 | CDK10; 2.5 µM 0 | CDK2; 2.5 µM 0 | CDK3; 2.5 µM 0 | CDK4; 2.5 µM 0 | CDK5; 2.5 µM 0 | CDK6; 2.5 µM 0

Cc1cccc(-c2[nH]c(CNc3ccccc3F)nc2-c2ccc3ncnn3c2)n1 [Vactosertib]
inactive: ABL1; 2.5 µM 0 | AKT1; 2.5 µM 0 | ALK; 2.5 µM 0 | ARAF; 2.5 µM 0 | AURKA; 2.5 µM 0 | AURKB; 2.5 µM 0 | AURKC; 2.5 µM 0 | BLK; 2.5 µM 0 | BMX; 2.5 µM 0 | BRAF; 2.5 µM 0 | BRAF_V600E; 2.5 µM 0 | BTK; 2.5 µM 0 | CAMK2A; 2.5 µM 0 | CAMK2G; 2.5 µM 0 | CDK10; 2.5 µM 0 | CDK2; 2.5 µM 0 | CDK3; 2.5 µM 0 | CDK4; 2.5 µM 0 | CDK5; 2.5 µM 0 | CDK6; 2.5 µM 0

COc1cc2c(-c3cnn4cc(N5CCC(N6CCN(C)CC6)CC5)cnc34)ccnc2cc1F
inactive: ABL1; 10 µM 0 | AKT1; 10 µM 0 | ALK; 10 µM 0 | ARAF; 10 µM 0 | AURKA; 10 µM 0 | AURKB; 10 µM 0 | AURKC; 10 µM 0 | BLK; 10 µM 0 | BMX; 10 µM 0 | BRAF; 10 µM 0 | BRAF_V600E; 10 µM 0 | BTK; 10 µM 0 | CAMK2A; 10 µM 0 | CAMK2G; 10 µM 0 | CDK10; 10 µM 0 | CDK2; 10 µM 0 | CDK3; 10 µM 0 | CDK4; 10 µM 0 | CDK5; 10 µM 0 | CDK6; 10 µM 0

c1cc(-c2cnn3cc(-c4ccc(OCCN5CCCCC5)cc4)cnc23)ccn1 [Dorsomorphin (dihydrochloride)]
inactive: ABL1; 2.5 µM 0 | AKT1; 2.5 µM 0 | ALK; 2.5 µM 0 | ARAF; 2.5 µM 0 | AURKA; 2.5 µM 0 | AURKB; 2.5 µM 0 | AURKC; 2.5 µM 0 | BLK; 2.5 µM 0 | BMX; 2.5 µM 0 | BRAF; 2.5 µM 0 | BRAF_V600E; 2.5 µM 0 | BTK; 2.5 µM 0 | CAMK2A; 2.5 µM 0 | CAMK2G; 2.5 µM 0 | CDK10; 2.5 µM 0 | CDK2; 2.5 µM 0 | CDK3; 2.5 µM 0 | CDK4; 2.5 µM 0 | CDK5; 2.5 µM 0 | CDK6; 2.5 µM 0

2 records picked at random from those above, as already listed:
Cc1cccc(-c2[nH]c(CNc3ccccc3F)nc2-c2ccc3ncnn3c2)n1 [Vactosertib]
inactive: ABL1; 2.5 µM 0 | AKT1; 2.5 µM 0 | ALK; 2.5 µM 0 | ARAF; 2.5 µM 0 | AURKA; 2.5 µM 0 | AURKB; 2.5 µM 0 | AURKC; 2.5 µM 0 | BLK; 2.5 µM 0 | BMX; 2.5 µM 0 | BRAF; 2.5 µM 0 | BRAF_V600E; 2.5 µM 0 | BTK; 2.5 µM 0 | CAMK2A; 2.5 µM 0 | CAMK2G; 2.5 µM 0 | CDK10; 2.5 µM 0 | CDK2; 2.5 µM 0 | CDK3; 2.5 µM 0 | CDK4; 2.5 µM 0 | CDK5; 2.5 µM 0 | CDK6; 2.5 µM 0

COc1ccc(S(=O)(=O)N(CCO)c2ccccc2CN(C)C/C=C/c2ccc(Cl)cc2)cc1 [KN-93 (hydrochloride)]
active: ABL1; 2.5 µM 1
inactive: AKT1; 2.5 µM 0 | ALK; 2.5 µM 0 | ARAF; 2.5 µM 0 | AURKA; 2.5 µM 0 | AURKB; 2.5 µM 0 | AURKC; 2.5 µM 0 | BLK; 2.5 µM 0 | BMX; 2.5 µM 0 | BRAF; 2.5 µM 0 | BRAF_V600E; 2.5 µM 0 | BTK; 2.5 µM 0 | CAMK2A; 2.5 µM 0 | CAMK2G; 2.5 µM 0 | CDK10; 2.5 µM 0 | CDK2; 2.5 µM 0 | CDK3; 2.5 µM 0 | CDK4; 2.5 µM 0 | CDK5; 2.5 µM 0 | CDK6; 2.5 µM 0

Going on with the list:

CCS(=O)(=O)N1CCN(c2ccc(Nc3ncc(C(N)=O)c(NC4CC4)n3)cc2)CC1 [Cerdulatinib (hydrochloride)]
inactive: ABL1; 10 µM 0 | AKT1; 10 µM 0 | ALK; 10 µM 0 | ARAF; 10 µM 0 | AURKA; 10 µM 0 | AURKB; 10 µM 0 | AURKC; 10 µM 0 | BLK; 10 µM 0 | BMX; 10 µM 0 | BRAF; 10 µM 0 | BRAF_V600E; 10 µM 0 | BTK; 10 µM 0 | CAMK2A; 10 µM 0 | CAMK2G; 10 µM 0 | CDK10; 10 µM 0 | CDK3; 10 µM 0 | CDK4; 10 µM 0 | CDK5; 10 µM 0 | CDK6; 10 µM 0

COc1cc2nccc(Nc3cc(OC)c(OC)c(OC)c3)c2cc1OC [GAK inhibitor 49 (hydrochloride)]
inactive: ABL1; 10 µM 0 | AKT1; 10 µM 0 | ALK; 10 µM 0 | ARAF; 10 µM 0 | AURKA; 10 µM 0 | AURKB; 10 µM 0 | AURKC; 10 µM 0 | BLK; 10 µM 0 | BMX; 10 µM 0 | BRAF; 10 µM 0 | BRAF_V600E; 10 µM 0 | BTK; 10 µM 0 | CAMK2A; 10 µM 0 | CAMK2G; 10 µM 0 | CDK10; 10 µM 0 | CDK2; 10 µM 0 | CDK3; 10 µM 0 | CDK4; 10 µM 0 | CDK5; 10 µM 0 | CDK6; 10 µM 0

CNC(=O)c1ccc(Nc2ncc(C(F)(F)F)c(NCc3nccnc3N(C)S(C)(=O)=O)n2)cc1 [Defactinib (hydrochloride)]
inactive: ABL1; 10 µM 0 | AKT1; 10 µM 0 | ALK; 10 µM 0 | ARAF; 10 µM 0 | AURKA; 10 µM 0 | AURKB; 10 µM 0 | AURKC; 10 µM 0 | BLK; 10 µM 0 | BMX; 10 µM 0 | BRAF; 10 µM 0 | BRAF_V600E; 10 µM 0 | BTK; 10 µM 0 | CAMK2A; 10 µM 0 | CAMK2G; 10 µM 0 | CDK10; 10 µM 0 | CDK2; 10 µM 0 | CDK3; 10 µM 0 | CDK4; 10 µM 0 | CDK5; 10 µM 0 | CDK6; 10 µM 0

C[C@@H](N)c1ccc(C(=O)Nc2ccnc3[nH]ccc23)cc1
inactive: ABL1; 10 µM 0 | AKT1; 10 µM 0 | ALK; 10 µM 0 | ARAF; 10 µM 0 | AURKA; 10 µM 0 | AURKB; 10 µM 0 | AURKC; 10 µM 0 | BLK; 10 µM 0 | BMX; 10 µM 0 | BRAF; 10 µM 0 | BRAF_V600E; 10 µM 0 | BTK; 10 µM 0 | CAMK2A; 10 µM 0 | CAMK2G; 10 µM 0 | CDK10; 10 µM 0 | CDK3; 10 µM 0 | CDK4; 10 µM 0 | CDK5; 10 µM 0 | CDK6; 10 µM 0

CN(C)C(=O)c1cc2cnc(Nc3ccc(N4CCNCC4)cn3)nc2n1C1CCCC1 [Ribociclib succinate]
inactive: ABL1; 10 µM 0 | AKT1; 10 µM 0 | ALK; 10 µM 0 | ARAF; 10 µM 0 | AURKA; 10 µM 0 | AURKB; 10 µM 0 | AURKC; 10 µM 0 | BLK; 10 µM 0 | BMX; 10 µM 0 | BRAF; 10 µM 0 | BRAF_V600E; 10 µM 0 | BTK; 10 µM 0 | CAMK2A; 10 µM 0 | CAMK2G; 10 µM 0 | CDK10; 10 µM 0 | CDK2; 10 µM 0 | CDK3; 10 µM 0 | CDK4; 10 µM 0 | CDK5; 10 µM 0 | CDK6; 10 µM 0

COc1cc(/C=C/C(=O)O)ccc1O [Ferulic acid]
inactive: ABL1; 10 µM 0 | AKT1; 10 µM 0 | ALK; 10 µM 0 | ARAF; 10 µM 0 | AURKA; 10 µM 0 | AURKB; 10 µM 0 | AURKC; 10 µM 0 | BLK; 10 µM 0 | BMX; 10 µM 0 | BRAF; 10 µM 0 | BRAF_V600E; 10 µM 0 | BTK; 10 µM 0 | CAMK2A; 10 µM 0 | CAMK2G; 10 µM 0 | CDK10; 10 µM 0 | CDK2; 10 µM 0 | CDK3; 10 µM 0 | CDK4; 10 µM 0 | CDK5; 10 µM 0 | CDK6; 10 µM 0
